Measured values as given in patent publication US20170275653A1.
These are yes or no findings as the source states them, for the method shown. Some entries that bind do so weakly or less than the wild type. Where a sequence is shown, tags or fusion partners need not be part of it.

Biological target: GFP-YFP two-protein polypeptide scaffold (recombinant scaffold polypeptide with a B. cellulosolvens cohesin in place of the A. cellulolyticus cohesin)
Assay: fluorescence microscopy on softwood pulp, scaffold-tethered versus free fusion fluorescent proteins

B1: YFP-dockerin recombinant target polypeptide (protein)
chain: MKQHDFFKSAMPEGYVQERTIFFKDDGNYKTRAEVKFEGDTLVNRIELKGIDFKEDGNILGHKLEYNYNSHNVYITADKQKNGIKANFKIRHNIEDGGVQLADHYQQNTPIGDGPVLLPDNHYLSYQSALSKDPNEKRDHMVLLEFVTAAGITLGMDELYKLVPPKGTATVLYGDVDNDGNVDSDDYAYMRQWLIGMIADFPGGDIGLANADVDGDGNVDSDDYAYMRQWLIGMISEFPAEQKALEHHHHHH
With B1 the binding was “binds”.
